From ChEMBL document CHEMBL1137651 (Antimicrob Agents Chemother, 2007)
Values after ≈ are worked out from the molar mass of the structure shown.

System: Mycobacterium tuberculosis
Experiment: microbe, parasite or virus in culture
Conditions: H37Rv ATCC 2517

CO[C@H]1/C=C/O[C@@]2(C)Oc3c(C)c(O)c4c(O)c(c(/C=N/N5CCN(C)CC5)c(O)c4c3C2=O)NC(=O)/C(C)=C\C=C\[C@H](C)[C@H](O)[C@@H](C)[C@@H](O)[C@@H](C)[C@H](OC(C)=O)[C@@H]1C [RIFAMPIN]
MIC: 0.03 µg/mL (≈ 0.0365 µM)
